The other results are listed elsewhere or left out. These are further read-outs of the screen, such as a control signal, another cell line or another target. No call is given for them. Compounds called inactive in the main read-out are mostly missing here. Words in brackets tell the shape of the fitted curve; partial curves, single points and poor fits give uncertain potencies.
test: IkB Signaling; conditions: ABC-DLBCL IkBa-CBG/CBR dual luciferase ratio (green luciferase fused to IkBa over red control in OCI-Ly3 lymphoma cells), 4 h; measured here: control luc red channel unless noted
Procedure, shortened: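 Luminescence ratio of IκBα-fused green versus native red beetle luciferase in OCI-Ly3 cells, 4 h post-doxycycline with compound; red signal alone, scaled from basal (0%) to zero light (-100%), flagged nonspecific or cytotoxic effects.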

Row | Structure (SMILES) | AC50
1 | COc1ccc(CNc2nc3c(-c4cccc(F)c4)nnn3c3ccccc23)cc1 | 2.51 µM [rising, partial curve]
2 | COc1ccc(N(C)C(=O)c2cc3c(s2)-c2c(C)cccc2OC3)c(OC)c1 | 39.8 µM [falling, single point]
3 | COc1ccc(-c2c(C)nn3c(C(F)(F)F)cc(-c4ccccc4)nc23)cc1OC | 0.398 µM [rising, full curve]
4 | CCc1nc(SCC(=O)N2CCN(C(=O)c3ccco3)CC2)c2c3c(sc2n1)CCCC3 | 25.1 µM [falling, partial curve]
5 | Cc1ccc(NC(=O)c2c(C)oc3c2C2=NCCN2C=N3)cc1F | 5.01 µM [falling, single point]
6 | CCOC(=O)C1CCN(S(=O)(=O)c2cccc(-c3cn4ccccc4n3)c2)CC1 | 15.8 µM [falling, partial curve]
7 | COC(=O)c1cc2sccc2n1CC(=O)Nc1ccc(OC)c(OC)c1 | 2.51 µM [rising, full curve]
8 | CCc1ccc(-n2c(=O)c3sc4ccccc4c3n(CC(=O)NCc3ccccc3)c2=O)cc1 | 3.16 µM [rising, full curve]
9 | COc1ccc(C2=C(N3CCN(c4cc(C)ccc4C)CC3)c3ccccc3C2=O)cc1 | 31.6 µM [falling, partial curve]
10 | Cc1c(Cl)cccc1NC(c1ccc(F)cc1)c1nnc(-c2ccccc2)o1 (stereo not given) | 6.31 µM [falling, full curve]
11 | COc1ccc(OC)c(-n2c(N)c(C(=O)NCC3CCCO3)c3nc4ccccc4nc32)c1 (stereo not given) | 15.8 µM [falling, partial curve]
12 | CCOC(=O)c1cc(S(=O)(=O)N2CCN(c3cccc(C)c3C)CC2)[nH]n1 | 20 µM [falling, partial curve]
13 | NC(=O)c1c(C(F)(F)F)cc(-c2ccccc2)nc1NCCO | 15.8 µM [falling, partial curve]
14 | Cc1ccc(NC(=O)Nc2cn(CC(C)C)c(=O)c3ccccc23)cc1N(C)C | 39.8 µM [falling, single point]
15 | COc1ccc(-c2cc(C(C)=O)c(C)n2CCC(=O)NCc2ccc(C)cc2)cc1 | 20 µM [falling, single point]
16 | COc1cccc(CNC(=O)C2CCN(C(=O)c3cnn(-c4ccccc4)c3-n3cccc3)CC2)c1 | 12.6 µM [falling, partial curve]
17 | COc1ccc(Nc2nnc(-c3ccc(C)c(S(=O)(=O)NCCO)c3)c3ccccc23)cc1C(N)=O | 10 µM [falling, partial curve]
18 | COc1ccccc1OCC(=O)N1CCC(c2nc3ccccc3o2)CC1 | 31.6 µM [falling, single point]
19 | CCCS(=O)(=O)c1ncc(Cl)c(C(=O)Nc2c(C(=O)Nc3ccccc3)oc3ccccc23)n1 | 10 µM [falling, partial curve]
20 | COc1ccc(CCNC(=O)c2cn(C)c3ccc(S(=O)(=O)N4CCOCC4)cc3c2=O)cc1OC | 1 µM [rising, full curve]

Row | Structure (SMILES) | AC50
21 | Cc1ccccc1OCCCCn1c(CCNC(=O)C(C)(C)C)nc2ccccc21 | 20 µM [falling, partial curve]
22 | COc1ccc(OC)c(CNC(=O)c2ccc(NC(=O)c3nsc4ccccc34)cc2)c1 | 0.2 µM [falling, full curve]
23 | O=C(CSc1ccccc1)NCc1ccc2c(c1)CCN2C(=O)c1ccccc1 | 12.6 µM [falling, partial curve]
24 | CN(Cc1ccccc1)C(=O)CCS(=O)(=O)c1ccc2c(c1)oc(=O)n2C | 25.1 µM [falling, single point]
25 | Fc1ccc(C(NCCc2ccccc2)c2nnc(-c3ccccc3Cl)o2)cc1 (stereo not given) | 20 µM [falling, partial curve]
26 | Cc1ccc2nc(-c3cccc(NC(=O)c4ccc5c(c4)OCCO5)c3)oc2c1 | 7.94 µM [falling, full curve, poor fit]
27 | Cc1ccc(C)c(CN2CCCN(CC(=O)Nc3ccc(C)c(C)c3)S2(=O)=O)c1 | 10 µM [falling, partial curve]
28 | Nc1nc(CSc2ncn(-c3ccccc3)n2)cs1 | 10 µM [falling, partial curve]
29 | CC[C@]1(O)C[C@H]2CN(CCc3c([nH]c4ccccc34)[C@](C(=O)OC)(c3cc4c(cc3OC)N(C)[C@@H]3[C@](O)(C(=O)OC)[C@H](OC(C)=O)[C@]5(CC)C=CCN6CC[C@]43[C@@H]65)C2)C1 | 39.8 nM [rising, full curve] [measured here: IkB-luc green channel]
30 | Cc1ccc(S(=O)(=O)N2CCCC2C(=O)OCc2ccco2)cc1 (stereo not given) | 31.6 µM [rising, single point] [measured here: IkB-luc green channel]
31 | COc1ccc(Cc2nc3ccc(C(=O)NCCc4ccc(OC)c(OC)c4)cc3o2)cc1 | 31.6 µM [falling, partial curve]
32 | Cc1ccc(CNS(=O)(=O)c2cc(Br)cc3c2N(C(=O)C2CC2)CC3)cc1 | 3.16 µM [falling, partial curve]
33 | Cc1cccc2c(=O)cc(CSCC(=O)Nc3ccc(Cl)cc3)[nH]c12 | 0.0631 µM [falling, full curve, poor fit]
34 | Cc1ccc(CNC(=O)C(=O)NCC(c2ccco2)S(=O)(=O)c2ccc(C)cc2)cc1 (stereo not given) | 10 µM [rising, partial curve]
35 | Cc1ccc(Cn2c(=O)n(Cc3ccccc3)c(=O)c3c(C)c(C)sc32)cc1 | 10 µM [falling, partial curve]
36 | CCCCOc1cccc(C(=O)N(Cc2ccc(Br)o2)C2CCS(=O)(=O)C2)c1 (stereo not given) | 31.6 µM [falling, single point]
37 | COc1cccc2c1C(=O)c1c(O)c3c(c(O)c1C2=O)C[C@](O)(C(C)=O)C[C@H]3O[C@@H]1C[C@H](N)[C@H](O)[C@H](C)O1 | 2 µM [falling, full curve]
38 | COc1ccc2[nH]cc(CCNc3ncncc3-c3ccoc3)c2c1 | 3.16 µM [falling, partial curve]
39 | COc1ccc(S(=O)(=O)NCC(c2ccco2)N2CCN(c3ccc(F)cc3)CC2)cc1 (stereo not given) | 10 µM [falling, partial curve]
40 | CC(C)c1cnc2c(c1SCC(=O)c1ccccc1)c(=O)n(C)c(=O)n2C | 39.8 µM [falling, single point]

Retrieved one by one from the entries so far (5):
Row | Structure (SMILES) | AC50
18 | COc1ccccc1OCC(=O)N1CCC(c2nc3ccccc3o2)CC1 | 31.6 µM [falling, single point]
40 | CC(C)c1cnc2c(c1SCC(=O)c1ccccc1)c(=O)n(C)c(=O)n2C | 39.8 µM [falling, single point]
13 | NC(=O)c1c(C(F)(F)F)cc(-c2ccccc2)nc1NCCO | 15.8 µM [falling, partial curve]
15 | COc1ccc(-c2cc(C(C)=O)c(C)n2CCC(=O)NCc2ccc(C)cc2)cc1 | 20 µM [falling, single point]
27 | Cc1ccc(C)c(CN2CCCN(CC(=O)Nc3ccc(C)c(C)c3)S2(=O)=O)c1 | 10 µM [falling, partial curve]

(more compounds)

Row | Structure (SMILES) | AC50
41 | COC(=O)c1ccn(-c2nc(-c3ccc(Cl)cc3)cc(C(F)(F)F)n2)n1 | 20 µM [falling, partial curve]
42 | Cc1ccc(C(=O)Nc2sc3c(c2C(=O)O)CCCCC3)o1 | 0.00794 µM [falling, full curve]
43 | COc1ccc(-c2nc(C)c(CCNS(=O)(=O)c3ccc(F)cc3)s2)cc1OC | 0.0794 µM [falling, full curve, poor fit]
44 | O=C(O)c1ccc(Oc2nc3ccccc3s2)cc1 | 3.16 µM [falling, partial curve]
45 | CC(C)c1ccc(CN(Cc2ccco2)c2cnc(S(C)(=O)=O)nc2C(=O)Nc2ccccc2)cc1 | 5.01 µM [falling, full curve, poor fit]
46 | CCn1c2ccccc2c2cc(NC(=O)CCCN3C(=O)CCC3=O)ccc21 | 3.98 µM [falling, full curve]
47 | Cc1oc(-c2ccc(Cl)cc2)nc1CN1CCCC(C(=O)NCCc2ccccc2)C1 (stereo not given) | 25.1 µM [falling, partial curve]
48 | CC(C)(C)c1cn(-c2ccccc2)c(=S)[nH]1 | 3.98 µM [falling, partial curve]
49 | CC(=O)c1ccc(NC(=O)CSc2c(C(C)C)cnc3c2c(=O)n(C)c(=O)n3C)cc1 | 39.8 µM [falling, single point]
50 | COC(=O)c1c(-c2cccs2)csc1NC(=O)c1ccc(C)cc1 | 10 µM [rising, partial curve, poor fit]
51 | Cc1cc(NC(=O)c2cc(-c3ccc(Cl)c(Cl)c3)on2)n(-c2ccccc2)n1 | 39.8 µM [falling, single point]
52 | CCOc1ccc(CNC(=O)C2CCN(C(=O)N3CC(CC)Oc4ccc(C)cc43)CC2)cc1OC (stereo not given) | 10 µM [falling, partial curve]
53 | COc1ccccc1NC(=O)Cn1c(=O)n(CC2CCC(C(=O)NCCc3ccccc3)CC2)c(=O)c2ccccc21 (stereo not given) | 12.6 µM [falling, partial curve]
54 | Cc1cc(Br)ccc1NC(=O)c1c(C)oc2ncnc(N3CCCCC3)c12 | 25.1 µM [falling, partial curve]
55 | CCN(CC)CCOC(=O)c1ccc(NC(=O)c2cc3cc(OC)ccc3oc2=O)cc1 | 15.8 µM [falling, single point]
56 | COCCNC(=O)CN1C(=O)COc2ccc(S(=O)(=O)N3CCCC3)cc21 | 6.31 µM [falling, full curve]
57 | CCc1ccc(NC(=O)Cn2c(=O)n(CCCC(=O)NCCc3ccc(OC)c(OC)c3)c(=O)c3ccccc32)cc1 | 12.6 µM [falling, partial curve]
58 | COc1ccc(OC)c(N=c2oc3cc(O)ccc3cc2C(N)=O)c1 | 5.01 µM [falling, partial curve]
59 | CC(=O)NC12CC3CC(C1)CC(C(=O)OCC(=O)c1ccc4c(c1)OCCO4)(C3)C2 | 25.1 µM [falling, partial curve]
60 | CCOc1ccc(Sc2cc(C(=O)NCc3ccccc3Cl)c3ccccc3n2)cc1 | 3.98 µM [falling, full curve]

— PubChem BioAssay AID445 (National Center for Advancing Translational Sciences (NCATS), 2006)
